Test results taken from the supplement of paper PMC3334620.
In all, about 33,000 sequences were measured (“E-score (-0.5 to 0.5)”: median about -8e-05, highest 2% from about 0.23 on). Some of the results follow.

These sequences were tested against T1, Nrg2 (UniProt P38082) (assay: PBM E-score (8-mer binding enrichment) (E-score (-0.5 to 0.5)); higher = stronger / more preferred TF binding). Details: protein concentration: 100 nM; construct: GST-full length.
T1 sequence: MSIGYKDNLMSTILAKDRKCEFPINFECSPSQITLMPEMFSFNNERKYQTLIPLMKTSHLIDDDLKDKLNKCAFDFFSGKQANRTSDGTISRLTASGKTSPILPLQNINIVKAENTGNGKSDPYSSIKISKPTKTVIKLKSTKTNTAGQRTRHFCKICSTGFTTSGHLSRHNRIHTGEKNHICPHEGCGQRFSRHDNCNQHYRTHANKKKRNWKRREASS
Summary of the method: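 For each ungapped eight-base word taken together with its reverse complement, the Universal PBM Analysis Suite assigned an E-score. Binding data came from GST-tagged yeast transcription factors, applied at about 100-200 nM, on universal all-10-mer Agilent arrays made double-stranded by primer extension. Fluorescent anti-GST marked bound protein, and scans were normalised with masliner.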

Row | Sequence | PBM E-score
1 | ACGTGACC | -0.211
2 | GTGAGAGA | 0.0439
3 | GATGGACA | -0.0566
4 | CACCCATA | -0.0612
5 | CAAAGACC | -0.184
6 | GAATCGGC | -0.0226
7 | GTTCAAAA | -0.059
8 | CCAGGTTA | -0.159
9 | ACCGGCTC | -0.101
10 | ACACCTCA | -0.0051
11 | CTATGATC | 0.0772
12 | GACGCACA | 0.0509
13 | ATAACTAG | 0.143
14 | ACCCTGAG | 0.368
15 | TCCGAAAA | -0.0698
16 | ACTCTCGG | 0.046
17 | CATAATAG | 0.156
18 | GTACCACA | 0.0588
19 | CGGGCAAC | 0.0267
20 | CGACCCGC | -0.208
21 | CCATATCA | 0.00491
22 | AGCTTCAT | 0.0414
23 | GTTTTTTA | -0.021
24 | ACGCCTGG | -0.123
25 | GCTTCTCA | 0.00982

A second format for part of the listing above.

| Row | Sequence | PBM E-score |
| --- | --- | --- |
| 2 | GTGAGAGA | 0.0439 |
| 5 | CAAAGACC | -0.184 |
| 9 | ACCGGCTC | -0.101 |
| 10 | ACACCTCA | -0.0051 |
| 13 | ATAACTAG | 0.143 |
| 18 | GTACCACA | 0.0588 |
| 22 | AGCTTCAT | 0.0414 |

As a short view, part of the list above.
Row | Sequence | PBM E-score
12 | GACGCACA | 0.0509
13 | ATAACTAG | 0.143

Later entries:

Row | Sequence | PBM E-score
26 | CCGGTAGG | -0.00842
27 | CCTCGGGA | -0.0352
28 | AACTACTC | 0.184
29 | AGTCTTTC | -0.0294
30 | CACTCGGC | 0.105
31 | ATGCACCA | -0.0156
32 | AACTTTAC | 0.0267
33 | AAGCGAAT | 0.15
34 | GGATACCC | 0.0171
35 | CGCGTCCA | 0.00465
36 | CGCCTTTC | -0.113
37 | ATAAATGA | 0.0737
38 | TAATTGAA | 0.0286
39 | CGAGATCG | -0.0299
40 | GATCCCGC | 0.111
41 | AATCCCAT | -0.0333
42 | CCAGCGCC | -0.167
43 | AGACGAAA | 0.0785
44 | AAGATGCA | 0.136
45 | CCGAGTCC | -0.21
46 | AAGGTCGA | 0.18
47 | GGTAGTAA | -0.102
48 | GGTCGAAC | 0.068
49 | GCGCGCTA | 0.205
50 | GTATCTCA | 0.132

Row | Sequence | PBM E-score
51 | AGATTGCG | 0.00885
52 | CACCGTCA | -0.182
53 | AGTCATAA | -0.118
54 | CTGGGAAA | 0.101
55 | AATCAGAC | 0.136
56 | CAGAGCTG | -0.0821
57 | TCATCTAA | -0.0422
58 | AGATGACA | -0.0177
59 | GGAGAAAA | 0.0559
60 | CCACAACG | -0.0506
61 | TATCCGGA | 0.112
62 | ATTCTTTA | -0.0742
63 | GCCATGCA | 0.0668
64 | CAATCGTG | 0.0123
65 | CCGGGGCG | -0.124
66 | CATCCACG | -0.0485
67 | GCCGTAAA | 0.178
68 | ACGGAACG | 0.00809
69 | ACTAGTTA | -0.0387
70 | CCTAATAC | 0.116
71 | ATGGCTGC | 0.0232
72 | GTCTAGTA | 0.0934
73 | TCAGAAGA | -0.202
74 | CTTATAAA | 0.131
75 | CGCAAACA | 0.203

Row | Sequence | PBM E-score
76 | CTCCTGTA | -0.111
77 | CAAATAGC | 0.00233
78 | CAGTGGCC | -0.107
79 | CCCCTTGC | -0.0115
80 | ACGACCGC | -0.148
81 | ATCTAGAT | -0.062
82 | ACAAGTCC | -0.0791
83 | AGGTTTGG | -0.0346
84 | CAGTGCCA | -0.247
85 | CTCTTAGC | -0.0671
86 | ATGAACTC | 0.0271
87 | ATCAGTCA | 0.0252
88 | GAATAACA | 0.265
89 | GACCACTA | 0.129
90 | AATAGACA | 0.0965
91 | AAATTGCG | 0.0271
92 | CTCTATGA | -0.0917
93 | AGGAGAAA | -0.0359
94 | GTGTACAA | 0.023
95 | GGCTTTAC | -0.132
96 | ACCGGAGT | -0.116
97 | AAGCCATA | 0.0571
98 | ACGCTCCC | -0.182
99 | TCTTTTCA | 0.0352
100 | GAACGGTC | -0.0333

Row | Sequence | PBM E-score
101 | AATATATC | 0.111
102 | AGGAAAAT | 0.0204
103 | ATTACCAC | -0.0537
104 | AACTGACA | 0.0695
105 | GAAGCTTA | 0.0125
106 | GAGACGGC | -0.0458
107 | CGGCACCA | -0.0985
108 | CTATGTAC | 0.0235
109 | AACTAATC | 0.0549
110 | AATACCAA | 0.11
111 | GGATCAGA | -0.0493
112 | GATTAAGA | 0.137
113 | CATGCCAC | 0.0488
114 | AACAAGAG | 0.0791
115 | CTTTCACA | 0.136
116 | AAAATTAA | 0.0942
117 | GCGGCCTA | -0.0907
118 | CTACTCAG | -0.0405
119 | CTAAGGGA | 0.0517
120 | TACGTGAA | -0.111
121 | AATGCCTG | -0.164
122 | AGCGGTCC | -0.0422
123 | CATCACAA | 0.06
124 | TATCGCCA | 0.0646
125 | CCCGACGG | 0.0268

Row | Sequence | PBM E-score
126 | ATAAGTTC | 0.0764
127 | ACAAGTCT | -0.0606
128 | TATCGACA | 0.0689
129 | GTGATCCA | -0.0317
130 | GAACTACA | 0.0639
131 | CACTCGTC | -0.0519
132 | AGACATAT | 0.117
133 | AAAGCCGG | 0.155
134 | CGACATCA | 0.0768
135 | AGCGGCGC | -0.0829
136 | AGATAGTA | 0.102
137 | GGGAGCCA | -0.229
138 | GAAGGGTC | 0.0665
139 | GCCCTTAA | 0.0375
140 | CCATAACA | 0.183
141 | AGTCTTAA | -0.173
142 | GTTGAGTA | 0.102
143 | CTAGCTAA | -0.0409
144 | ACCGCTCG | -0.0474
145 | ATTGGGTC | 0.174
146 | ATTTCTAA | -0.121
147 | AGCGCGAC | 0.12
148 | CCCAGAAC | 0.0532
149 | AATCCTAC | -0.254
150 | ATTCGGCA | -0.1

Row | Sequence | PBM E-score
151 | AGTCCAGC | -0.209
152 | CATCAAGC | 0.0474
153 | GGTTAACC | 0.0695
154 | AAGCGTCA | 0.0781
155 | GGCCGCCC | -0.133
156 | AACCTTTG | -0.124
157 | AACATTCC | 0.00997
158 | CGATTCCA | 0.0891
159 | AGGTTACC | 0.107
160 | CGAGGTTC | 0.142
161 | ATGAAACC | 0.122
162 | AGTCCCAA | -0.0144
163 | AATTGTGA | 0.116
164 | CGGAGTTC | 0.0454
165 | TGTGAGAA | 0.183
166 | ACGGGATC | -0.068
167 | GAGAGTCA | -0.128
168 | TCCACCCA | -0.127
169 | ATCAGCTC | 0.0372
170 | ATGTAGTA | 0.154
171 | GCACTGAA | 0.00332
172 | TAAGTCTA | -0.188
